Measured values taken from US20240252638A1, “INDUCER FOR REPROGRAMMING T CELL INTO NK-LIKE CELL AND APPLICATION OF INDUCER” (ZHAOTAI IMMUGENE BIOMEDICINE (HONG KONG) LIMITED, priority 2021, published 2024).
For at least one compound, name, drawing or mass did not settle the structure.

Columns and labels:
[1] = test system: K562 cells (human chronic myeloid leukemia cells); experiment: In vitro killing detection of reprogrammed T cells (luciferase); type: cell-based; conditions: effector-target ratios 16:1 to 1:4, co-cultured 24 h, vs T cells treated by DMSO
Excerpt: (1) The T cells induced by GSK-3484862, the T cells induced by DAC, the T cells induced by Mocetinostat, the T cells co-induced by GSK-3484862 and Mocetinostat, the T cells co-induced by DAC and Mocetinostat and the T cells treated by DMSO were mixed with 1×10^4 K562 cells (human chronic myeloid leukemia cells) according to different effector-target ratios (16:1, 8:1, 4:1, 2:1, 1:1, 1:2 and 1:4), respectively, and added to a 96-well cell culture plate. Three duplicate wells were set for each group, and a group with the addition of tumor cells alone was set as a positive control. After centrifugation at 250×g for 5 min, the cells were placed in a 5% CO2 incubator at 37° C. and co-cultured for 24 h.
(2) After 24 h, 100 μL/well luciferase substrate (1×) was added to the 96-well cell culture plate, and the cells were resuspended and uniformly mixed. RLU (Relative light units) were immediately measured by a multifunctional microplate reader for 0.1 s. A killing proportion calculation formula of a quantitative killing efficiency assessment method using a luciferase is as follows:
100%×(control well reading-experimental well reading)/control well reading (blank group (without the addition of the cells) reading may be ignored). […]

[2] = test system: reprogrammed T cells co-cultured with K562; experiment: Secretion of cytokines IFN-γ and granzyme B by reprogrammed T cells co-cultured with K562 (ELISA); type: cell-based, human; conditions: co-cultured with K562 for 48 h, supernatant
Experimental: The T cells induced by DAC, the T cells induced by GSK-3484862, the T cells co-induced by DAC and Mocetinostat, the T cells co-induced by GSK-3484862 and Mocetinostat and the T cells treated by DMSO were co-cultured with human chronic myeloid leukemia cells K562 for 48 h, respectively, and expression levels of cytokines IFN-γ and a granzyme B in supernatant were detected through ELISA.

[3] = test system: primary T cells in human umbilical cord blood; experiment: Detection of phenotypes of reprogrammed T cells through flow cytometry (NKp30/NKp46 expression); type: cell-based; conditions: concentrations of Table 1
Excerpt: In this example, umbilical cord blood mononuclear cells (UCBMCs) were separated from the umbilical cord blood through Ficoll-hypaque (polysucrose-meglumine diatrizoate) density gradient centrifugation, 4×10^7 CD3 positive UCBMCs were taken and cultured overnight with a cell density of 2×10^6 cells/mL, remaining UCBMCs were frozen, and T cells were sorted by the Pan T cell isolation kit and cultured for a period of time to obtain ≥4×10^7 CD3 positive T cells with a viability rate of ≥70% and without contamination by exogenous microorganisms such as bacteria, fungi and mycoplasmas.
(1) T cells activated by TransAct for 36 h were taken and centrifuged at 300 g for 5 min, the T cells were resuspended with an IMDM+5% FBS+1% double antibody (a 100×penicillin-streptomycin mixed solution)+IL2 (300 U), and a T cell density was adjusted to (2−3)×10^5 cells/mL.
(2) Groups of small molecule inhibitor drugs were added to the resuspended T cells, respectively. […]
(2) Data analysis was performed by BD-flowcyto analysis software, and 10000 cells were collected in each tube. The appearance of a significant increase in NKp-30 and the appearance of an NKp46-positive cell population were used as signs of successful reprogramming, and a percentage of positive T cells was calculated. […]

SMILES | in vitro killing of K562 by induced T cells [1] | IFN-γ and granzyme B secreted by induced T cells (immune effect) [2] | expression of NKp46 and NKp30 in CD4 and CD8 among induced T cells compared with DMSO ([3]; induced by a single inhibitor until Day5) | induction of T cells to reprogram into NK-like cells ([3]; induced until Day5)
Nc1ncn([C@H]2C[C@H](O)[C@@H](CO)O2)c(=O)n1 [DAC, decitabine] | effectively kill | produce an immune effect | – | –
CCN(c1cc(-c2ccc(CN3CCOCC3)cc2)cc(C(=O)NCc2c(C)cc(C)[nH]c2=O)c1C)C1CCOCC1 [Tazemetostat] | effectively kill | – | significantly expressed | can induce the T cells to reprogram into NK-like cells
